Reference: paper doi:10.1101/577437
These are yes or no findings as the source states them, for the method shown.

The chains behind the UniProt entries cited, without tags or fusion partners. Residues count along the entry.
UniProt P84095, residues 1-179: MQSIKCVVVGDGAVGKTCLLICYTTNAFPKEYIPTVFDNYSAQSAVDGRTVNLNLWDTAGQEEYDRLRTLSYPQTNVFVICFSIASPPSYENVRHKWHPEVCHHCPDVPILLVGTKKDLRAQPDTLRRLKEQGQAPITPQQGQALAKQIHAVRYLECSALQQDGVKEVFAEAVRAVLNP
UniProt Q15311, residues 395-517: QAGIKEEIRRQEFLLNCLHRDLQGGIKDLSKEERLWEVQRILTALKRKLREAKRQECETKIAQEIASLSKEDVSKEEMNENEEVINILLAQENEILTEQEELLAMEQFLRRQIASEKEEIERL
UniProt P15056, residues 150-233: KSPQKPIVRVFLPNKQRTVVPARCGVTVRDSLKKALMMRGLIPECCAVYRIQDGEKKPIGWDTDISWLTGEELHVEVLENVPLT

Experiments:
[1] = biological target: HRAS wild-type (residues 1-171) (UniProt P01112); assay: NMR titration
RHOG (residues 1-179) = RHOG (residues 1-179) (UniProt P84095); assay: NMR titration

Substance | binding [1] | binding (RHOG (residues 1-179))
human RLIP76 RBD (residues 395-517) (from UniProt Q15311 395-517) (domain or fragment) | no binding | 
human BRAF RBD (residues 150-233) (from UniProt P15056 150-233) (domain or fragment) |  | no binding
